These results are taken from patent US20210380649A1.

The target of assay [1] is T1, recombinant mouse (rm) Wnt3a biotinylated protein (mouse), P27467. Kind of assay: ELISA: in-solution binding with biotinylated mouse Wnt3a (100 ng/mL), capture on streptavidin plate, detection with sheep anti-sFRP4 antibody, FIG. 8. The settings on record: remark: other sources report otherwise.
Assay [2] has as its target T2, mouse Wnt1 (mouse) (UniProt P04426).
T2 sequence (looked up): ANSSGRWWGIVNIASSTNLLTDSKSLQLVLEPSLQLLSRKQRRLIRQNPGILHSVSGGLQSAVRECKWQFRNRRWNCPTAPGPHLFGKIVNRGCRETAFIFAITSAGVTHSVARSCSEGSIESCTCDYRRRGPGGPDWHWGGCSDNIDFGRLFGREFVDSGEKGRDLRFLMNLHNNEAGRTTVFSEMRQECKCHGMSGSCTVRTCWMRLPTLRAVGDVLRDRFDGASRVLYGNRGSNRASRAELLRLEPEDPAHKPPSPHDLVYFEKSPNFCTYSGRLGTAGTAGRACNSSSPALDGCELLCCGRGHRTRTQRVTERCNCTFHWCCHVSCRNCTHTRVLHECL
Kind of assay: co-immunoprecipitation from CHO conditioned media, Western blot. For orientation: A western blot detects proteins with antibodies after separation by electrophoresis.

Assay [3] addresses T2, mouse Wnt1 (mouse). Kind of assay: co-immunoprecipitation from CHO conditioned media (IP anti-Wnt1, blot anti-His; IP anti-His, blot anti-Wnt1), FIG. 2A.
Assay [4] has as its target T3, mouse Wnt2b (mouse) (UniProt O70283).
T3 sequence (looked up): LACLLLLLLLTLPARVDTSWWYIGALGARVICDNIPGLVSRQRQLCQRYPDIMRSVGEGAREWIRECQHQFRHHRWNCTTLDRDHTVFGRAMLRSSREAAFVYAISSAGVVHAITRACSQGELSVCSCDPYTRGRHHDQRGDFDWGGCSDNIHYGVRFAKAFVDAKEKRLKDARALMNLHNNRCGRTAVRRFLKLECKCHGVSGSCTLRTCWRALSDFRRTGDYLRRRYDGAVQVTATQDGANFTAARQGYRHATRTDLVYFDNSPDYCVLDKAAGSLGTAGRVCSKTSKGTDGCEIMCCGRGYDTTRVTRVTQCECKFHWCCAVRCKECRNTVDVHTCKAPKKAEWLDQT
The assay can be described thus: co-immunoprecipitation from CHO conditioned media (IP anti-mWnt2b, blot anti-hsFRP1; IP anti-hsFRP1, blot anti-mWnt2b), FIG. 2B and 2C.

The target in assay [5] is T3, mouse Wnt2b (mouse). Kind of assay: co-immunoprecipitation: IP anti-hsFRP1, blot anti-mWnt2b, FIG. 2C.
The target of assay [6] is T3, mouse Wnt2b (mouse). Kind of assay: co-immunoprecipitation: IP anti-mWnt2b, blot anti-hsFRP1, FIG. 2B.
Assay [7] concerns the target T1, recombinant mouse (rm) Wnt3a …. Kind of assay: ELISA: in-solution binding with biotinylated mouse Wnt3a (100 ng/mL), capture on streptavidin plate, detection with mouse anti-His antibody, FIG. 8. Conditions: remark: other sources report otherwise.

Results are given in words; binding and its absence hold for the method and conditions named. For some of these results: In cells and extracts the contact can be indirect. Some entries that bind do so weakly or less than the wild type. For some of these results: Tags and fused reporters may be left off the sequences shown.

B1: mouse sFRP4, Q9Z1N6 19-351 (protein, UniProt Q9Z1N6 19-351, looked up)
chain: VRGAPCEAVRIPMCRHMPWNITRMPNHLHHSTQENAILAIEQYEELVDVNCSSVLRFFLCAMYAPICTLEFLHDPIKPCKSVCQRARDDCEPLMKMYNHSWPESLACDELPVYDRGVCISPEAIVTDLPEDVKWIDITPDMMVQERSFDADCKRLSPDRCKCKKVKPTLATYLSKNYSYVIHAKIKAVQRSGCNEVTTVVDVKEIFKSLSPIPRTQVPLITNSSCQCPHILPHQDVLIMCYEWRSRMMLLENCLVEKWRDQLSRRSIQWEERLQEQQRTIQDKKQIASRTSRTSRSNPPKSKGRPPAPKPASPKKNIKARSAPKKSNLKKSAS
modifications: here or on the partner: biotinylated (sites not given)
As for B1, the binding entry in assay [1] was “binds”.

B2: mouse sFRP1-His (protein, UniProt Q8C4U3 32-314, looked up, not shown: small tags and cut ends)
chain: SEYDYVSFQSDIGSYQSGRFYTKPPQCVDIPVDLRLCHNVGYKKMVLPNLLEHETMAEVKQQASSWVPLLNKNCHMGTQVFLCSLFAPVCLDRPIYPCRWLCEAVRDSCEPVMQFFGFYWPEMLKCDKFPEGDVCIAMTPPNTTEASKPQGTTVCPPCDNELKSEAIIEHLCASEFALRMKIKEVKKENGDKKIVPKKKKPLKLGPIKKKELKRLVLFLKNGADCPCHQLDNLSHNFLIMGRKVKSQYLLTAIHKWDKKNKEFKNFMKRMKNHECPTFQSVFK
Consider B2, for which the binding result with mouse Wnt1 (mouse) [2] and with mouse Wnt1 (mouse) [3] was “binds” each time.

B3: mouse sFRP1 (protein, UniProt Q8C4U3 32-314, looked up)
chain: B2 chain
In the case of B3, the binding result in the assay with mouse Wnt2b (mouse) [4], with mouse Wnt2b (mouse) [5] and with mouse Wnt2b (mouse) [6] was “binds” each time.

B4: His tagged-mouse sFRP3, P97401 33-323 (protein, UniProt P97401 33-323, looked up, not shown: small tags and cut ends)
chain: AACEPVRIPLCKSLPWNMTKMPNHLHHSTQANAILAMEQFEGLLGTHCSPDLLFFLCAMYAPICTIDFQHEPIKPCKSVCERARQGCEPILIKYRHSWPESLACDELPVYDRGVCISPEAIVTADGADFPMDSSTGHCRGASSERCKCKPVRATQKTYFRNNYNYVIRAKVKEVKMKCHDVTAVVEVKEILKASLVNIPRDTVNLYTTSGCLCPPLTVNEEYVIMGYEDEERSRLLLVEGSIAEKWKDRLGKKVKRWDMKLRHLGLGKTDASDSTQNQKSGRNSNPRPARS
modifications: here or on the partner: biotinylated (sites not given)
With B4, in assay [7], the binding entry is given as “binds”.
